PubChem BioAssay AID1259405, NCATS, 2018

Assay: 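Silenced genes that increase secreted GFP made by CHO cells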 (primary screen)
System: Chinese hamster CHO-K1 ovary cells with stable secreted eGFP expression
Reagents: single siRNA against mouse genes, 0.8 pmol siRNA per well (2 µl of 400 nM stock)
Timing: 3 days
Measured: 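Percent of the per-plate non-targeting control median for intracellular GFP per well by laser scanning cytometry and for cell viability by ATP luminescence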
Scale: GFP, % of control: higher = more GFP per well, higher productivity; viability (ATP), % of control: higher = more viable cells (more ATP)
Active means: 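a knock-down is called active if GFP reaches 120% or more of non-targeting control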
This is an unselected part of about 50,000 reagents tested. Of all reagents, about 4,000 (8%) got an active call. 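Mouse siRNA library applied to hamster cells; one well for each siRNA.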 A number with no mark means an inactive call. The numbers tell different reagents against one gene apart.

| target gene | siRNA no. | GFP, % of control | viability (ATP), % of control |
| --- | --- | --- | --- |
| Ccdc149 (coiled-coil domain containing 149) | 1 | 33.1 | 57.9 |
| Ccdc149 (coiled-coil domain containing 149) | 2 | 83.7 | 61.5 |
| Ccdc149 (coiled-coil domain containing 149) | 3 | 90.9 | 88 |
| Mrgpra5 (MAS-related GPR, member A5) | 1 | 21.7 | 45.2 |
| Mrgpra5 (MAS-related GPR, member A5) | 2 | 65.9 | 62.9 |
| Mrgpra5 (MAS-related GPR, member A5) | 3 | 104 | 70.9 |
| Rbfa (ribosome binding factor A) | 1 | 58.7 | 70.9 |
| Rbfa (ribosome binding factor A) | 2 | 74.1 | 82.3 |
| Rbfa (ribosome binding factor A) | 3 | 106 | 74.5 |
| Tjp2 (tight junction protein 2) | 1 | 26.7 | 26.7 |
| Tjp2 (tight junction protein 2) | 2 | 101 | 90.4 |
| Tjp2 (tight junction protein 2) | 3 | 78.4 | 128 |
| Slc30a9 | 1 | 66.3 | 68.3 |
| Slc30a9 | 2 | 99.1 | 58.7 |
| Slc30a9 | 3 | 56.8 | 86.7 |
| Or51v8 (olfactory receptor family 51 subfamily V member 8) | 1 | 87 | 91.2 |
| Or51v8 (olfactory receptor family 51 subfamily V member 8) | 2 | 79.2 | 73.1 |
| Or51v8 (olfactory receptor family 51 subfamily V member 8) | 3 | 44.8 | 67.6 |
| Grhl2 (grainyhead like transcription factor 2) | 1 | 81.2 | 65.6 |
| Grhl2 (grainyhead like transcription factor 2) | 2 | 67.2 | 72.6 |
| Grhl2 (grainyhead like transcription factor 2) | 3 | 71.2 | 79.7 |
| Cnot1 (CCR4-NOT transcription complex, subunit 1) | 1 | 45.5 | 66 |
| Cnot1 (CCR4-NOT transcription complex, subunit 1) | 2 | 58.2 | 43.8 |
| Cnot1 (CCR4-NOT transcription complex, subunit 1) | 3 | 97.3 | 86.6 |
| Zcwpw1 (zinc finger, CW type with PWWP domain 1) | 1 | 63.7 | 86.4 |
| Zcwpw1 (zinc finger, CW type with PWWP domain 1) | 2 | 91.8 | 88.1 |
| Zcwpw1 (zinc finger, CW type with PWWP domain 1) | 3 | 84.9 | 89.6 |
| Rsph3a (radial spoke 3A homolog (Chlamydomonas)) | 1 | 59.1 | 45.7 |
| Rsph3a (radial spoke 3A homolog (Chlamydomonas)) | 2 | 82.1 | 76.8 |
| Rsph3a (radial spoke 3A homolog (Chlamydomonas)) | 3 | 77.6 | 92.6 |
| Lsm5 | 1 | 64.9 | 61.9 |
| Lsm5 | 2 | 87.3 | 70.6 |
| Lsm5 | 3 | 91.6 | 80 |
| Vit (vitrin) | 1 | 30.4 | 26.9 |
| Vit (vitrin) | 2 | 107 | 82.6 |
| Vit (vitrin) | 3 | 83.1 | 81 |
| Actn2 (actinin alpha 2) | 1 | 84.9 | 73.2 |
| Actn2 (actinin alpha 2) | 2 | 131 (active) | 113 |
| Cd274 (CD274 antigen) | 1 | 16.5 | 33.9 |
| Cd274 (CD274 antigen) | 2 | 80.3 | 76.8 |
| Cd274 (CD274 antigen) | 3 | 57.1 | 66 |
| E130308A19Rik (RIKEN cDNA E130308A19 gene) | 1 | 65.2 | 85.3 |
| E130308A19Rik (RIKEN cDNA E130308A19 gene) | 2 | 58.4 | 40.5 |
| E130308A19Rik (RIKEN cDNA E130308A19 gene) | 3 | 103 | 69.1 |
| Plppr5 (phospholipid phosphatase related 5) | 1 | 97.4 | 94.5 |
| Plppr5 (phospholipid phosphatase related 5) | 2 | 105 | 99.7 |
| Plppr5 (phospholipid phosphatase related 5) | 3 | 91.2 | 97.1 |
| Cetn1 (centrin 1) | 1 | 97.4 | 105 |
| Cetn1 (centrin 1) | 2 | 70.2 | 75.3 |
| St13 (suppression of tumorigenicity 13) | 1 | 97.2 | 107 |
| St13 (suppression of tumorigenicity 13) | 2 | 114 | 107 |
| Npy6r (neuropeptide Y receptor Y6) | 1 | 41.4 | 39.7 |
| Npy6r (neuropeptide Y receptor Y6) | 2 | 66.6 | 55.7 |
| Npy6r (neuropeptide Y receptor Y6) | 3 | 43.5 | 19.3 |
| Htr1d (5-hydroxytryptamine (serotonin) receptor 1D) | 1 | 65.2 | 62.6 |
| Htr1d (5-hydroxytryptamine (serotonin) receptor 1D) | 2 | 92.7 | 88.8 |
| Htr1d (5-hydroxytryptamine (serotonin) receptor 1D) | 3 | 59.9 | 69.8 |
| Lhfpl4 (lipoma HMGIC fusion partner-like protein 4) | 1 | 53.4 | 32.9 |
| Lhfpl4 (lipoma HMGIC fusion partner-like protein 4) | 2 | 85.8 | 94.9 |
| Lhfpl4 (lipoma HMGIC fusion partner-like protein 4) | 3 | 85.1 | 70.7 |
| Qtman (queuosine-tRNA mannosyltransferase) | 1 | 43.5 | 64.7 |
| Qtman (queuosine-tRNA mannosyltransferase) | 2 | 88.5 | 82.4 |
| Qtman (queuosine-tRNA mannosyltransferase) | 3 | 104 | 74.5 |

Called active (from the list above):
| target gene | siRNA no. | GFP, % of control | viability (ATP), % of control |
| --- | --- | --- | --- |
| Actn2 (actinin alpha 2) | 2 | 131 (active) | 113 |

Further records follow:
| target gene | siRNA no. | GFP, % of control | viability (ATP), % of control |
| --- | --- | --- | --- |
| Uck2 (uridine-cytidine kinase 2) | 1 | 96.4 | 109 |
| Uck2 (uridine-cytidine kinase 2) | 2 | 64.1 | 74.3 |
| Uck2 (uridine-cytidine kinase 2) | 3 | 101 | 69.4 |
| 1700073E17Rik (RIKEN cDNA 1700073E17 gene) | 1 | 123 (active) | 76.3 |
| 1700073E17Rik (RIKEN cDNA 1700073E17 gene) | 2 | 108 | 63.7 |
| 1700073E17Rik (RIKEN cDNA 1700073E17 gene) | 3 | 82.9 | 87.7 |
| Zfp628 (zinc finger protein 628) | 1 | 59.1 | 58.4 |
| Zfp628 (zinc finger protein 628) | 2 | 93.2 | 88.1 |
| Zfp628 (zinc finger protein 628) | 3 | 86.4 | 92.6 |
| Rhoj (ras homolog family member J) | 1 | 134 (active) | 122 |
| Rhoj (ras homolog family member J) | 2 | 98.9 | 83.1 |
| Rhoj (ras homolog family member J) | 3 | 95.2 | 79.4 |
| Smr3a (submaxillary gland androgen regulated protein 3A) | 1 | 78.3 | 48.6 |
| Smr3a (submaxillary gland androgen regulated protein 3A) | 2 | 34 | 56.9 |
| Smr3a (submaxillary gland androgen regulated protein 3A) | 3 | 43.2 | 42.5 |
| Or2f1 (olfactory receptor family 2 subfamily F member 1) | 1 | 50.5 | 48.7 |
| Or2f1 (olfactory receptor family 2 subfamily F member 1) | 2 | 80.2 | 75.3 |
| Or2f1 (olfactory receptor family 2 subfamily F member 1) | 3 | 0 | 1.37 |
| Tas2r121 (taste receptor, type 2, member 121) | 1 | 53.3 | 83.8 |
| Tas2r121 (taste receptor, type 2, member 121) | 2 | 57.6 | 98 |
| Tas2r121 (taste receptor, type 2, member 121) | 3 | 86.1 | 84.9 |
| Obox1 (oocyte specific homeobox 1) | 1 | 154 (active) | 87.2 |
| Obox1 (oocyte specific homeobox 1) | 2 | 62.3 | 83.5 |
| Obox1 (oocyte specific homeobox 1) | 3 | 100 | 81.1 |
| Surf2 (surfeit gene 2) | 1 | 84.5 | 70.5 |
| Surf2 (surfeit gene 2) | 2 | 103 | 98.3 |
| Surf2 (surfeit gene 2) | 3 | 74.1 | 72.4 |
| Cnot7 (CCR4-NOT transcription complex, subunit 7) | 1 | 73.4 | 61 |
| Cnot7 (CCR4-NOT transcription complex, subunit 7) | 2 | 93.1 | 77 |
| Arg1 (arginase, liver) | 1 | 83.1 | 95.2 |
| Arg1 (arginase, liver) | 2 | 147 (active) | 133 |
| Arg1 (arginase, liver) | 3 | 108 | 108 |
| Arg1 (arginase, liver) | 4 | 75.4 | 90.7 |
| Arg1 (arginase, liver) | 5 | 107 | 113 |
| Arg1 (arginase, liver) | 6 | 149 (active) | 88.1 |
| Golga1 (golgin A1) | 1 | 59.6 | 56.8 |
| Golga1 (golgin A1) | 2 | 89.7 | 53 |
| Golga1 (golgin A1) | 3 | 64 | 92.5 |
| Nav1 (neuron navigator 1) | 1 | 51.4 | 70.4 |
| Nav1 (neuron navigator 1) | 2 | 55.2 | 78.8 |
| Nav1 (neuron navigator 1) | 3 | 62.2 | 41.4 |
| Txnl4a (thioredoxin-like 4A) | 1 | 51.2 | 66.9 |
| Txnl4a (thioredoxin-like 4A) | 2 | 57.5 | 69.3 |
| Txnl4a (thioredoxin-like 4A) | 3 | 44.2 | 27.5 |
| Txnl4a (thioredoxin-like 4A) | 4 | 66.6 | 48.6 |
| Txnl4a (thioredoxin-like 4A) | 5 | 39.9 | 70.7 |
| Txnl4a (thioredoxin-like 4A) | 6 | 104 | 102 |
